# Laboratory results taken from the supplement of paper PMC10849652.
# Sequences of proteins named here, by UniProt entry; tags and fusion partners are left off. A change or cut given only in a name is not applied to a line headed by its entry.
# UniProt Q99523, whole entry, looked up: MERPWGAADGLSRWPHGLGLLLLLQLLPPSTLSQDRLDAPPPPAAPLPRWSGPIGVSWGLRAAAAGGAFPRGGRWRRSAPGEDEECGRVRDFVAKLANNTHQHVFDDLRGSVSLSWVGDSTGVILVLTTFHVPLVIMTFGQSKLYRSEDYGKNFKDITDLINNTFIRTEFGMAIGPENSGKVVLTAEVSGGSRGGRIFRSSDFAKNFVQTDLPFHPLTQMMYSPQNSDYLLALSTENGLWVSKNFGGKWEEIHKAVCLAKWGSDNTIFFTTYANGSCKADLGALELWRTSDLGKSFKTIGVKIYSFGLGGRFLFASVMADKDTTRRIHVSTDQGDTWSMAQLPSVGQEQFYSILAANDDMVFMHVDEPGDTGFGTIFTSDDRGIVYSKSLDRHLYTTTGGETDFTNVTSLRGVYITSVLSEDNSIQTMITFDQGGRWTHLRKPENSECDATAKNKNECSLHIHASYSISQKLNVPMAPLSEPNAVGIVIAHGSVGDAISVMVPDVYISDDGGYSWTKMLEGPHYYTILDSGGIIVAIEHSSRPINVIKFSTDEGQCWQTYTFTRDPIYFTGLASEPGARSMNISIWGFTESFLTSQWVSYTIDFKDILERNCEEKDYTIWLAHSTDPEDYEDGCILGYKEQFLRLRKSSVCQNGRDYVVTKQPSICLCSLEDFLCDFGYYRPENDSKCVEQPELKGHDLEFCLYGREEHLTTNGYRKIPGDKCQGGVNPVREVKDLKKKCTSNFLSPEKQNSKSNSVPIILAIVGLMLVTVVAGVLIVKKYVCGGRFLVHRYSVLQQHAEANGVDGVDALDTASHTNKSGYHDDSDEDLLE
# UniProt Q92536: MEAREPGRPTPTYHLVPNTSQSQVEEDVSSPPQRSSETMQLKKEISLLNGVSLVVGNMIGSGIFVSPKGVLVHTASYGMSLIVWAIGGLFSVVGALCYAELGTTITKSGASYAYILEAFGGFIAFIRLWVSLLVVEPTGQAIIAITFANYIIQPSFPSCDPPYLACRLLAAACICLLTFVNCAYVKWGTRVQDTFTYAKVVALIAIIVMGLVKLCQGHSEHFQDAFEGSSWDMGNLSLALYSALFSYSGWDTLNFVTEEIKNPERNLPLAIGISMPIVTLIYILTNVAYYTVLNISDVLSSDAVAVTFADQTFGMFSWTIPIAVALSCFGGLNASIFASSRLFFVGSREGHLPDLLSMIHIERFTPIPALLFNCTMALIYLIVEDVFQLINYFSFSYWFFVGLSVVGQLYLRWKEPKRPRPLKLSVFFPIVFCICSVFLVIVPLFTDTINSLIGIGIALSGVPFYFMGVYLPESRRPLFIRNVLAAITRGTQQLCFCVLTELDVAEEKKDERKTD
# UniProt Q13424: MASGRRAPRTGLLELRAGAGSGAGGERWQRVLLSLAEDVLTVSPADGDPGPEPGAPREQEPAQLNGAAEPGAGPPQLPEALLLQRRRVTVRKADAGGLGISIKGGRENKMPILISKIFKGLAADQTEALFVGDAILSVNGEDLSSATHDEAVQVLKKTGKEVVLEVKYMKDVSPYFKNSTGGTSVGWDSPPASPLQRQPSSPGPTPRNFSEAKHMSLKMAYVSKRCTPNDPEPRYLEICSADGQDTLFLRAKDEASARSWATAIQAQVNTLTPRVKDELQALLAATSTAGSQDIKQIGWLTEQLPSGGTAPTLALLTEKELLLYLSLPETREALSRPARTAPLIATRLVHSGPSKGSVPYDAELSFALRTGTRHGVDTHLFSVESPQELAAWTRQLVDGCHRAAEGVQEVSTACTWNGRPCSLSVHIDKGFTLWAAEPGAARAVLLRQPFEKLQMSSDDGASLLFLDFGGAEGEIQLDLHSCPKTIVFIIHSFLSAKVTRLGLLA
# UniProt Q9H2G2: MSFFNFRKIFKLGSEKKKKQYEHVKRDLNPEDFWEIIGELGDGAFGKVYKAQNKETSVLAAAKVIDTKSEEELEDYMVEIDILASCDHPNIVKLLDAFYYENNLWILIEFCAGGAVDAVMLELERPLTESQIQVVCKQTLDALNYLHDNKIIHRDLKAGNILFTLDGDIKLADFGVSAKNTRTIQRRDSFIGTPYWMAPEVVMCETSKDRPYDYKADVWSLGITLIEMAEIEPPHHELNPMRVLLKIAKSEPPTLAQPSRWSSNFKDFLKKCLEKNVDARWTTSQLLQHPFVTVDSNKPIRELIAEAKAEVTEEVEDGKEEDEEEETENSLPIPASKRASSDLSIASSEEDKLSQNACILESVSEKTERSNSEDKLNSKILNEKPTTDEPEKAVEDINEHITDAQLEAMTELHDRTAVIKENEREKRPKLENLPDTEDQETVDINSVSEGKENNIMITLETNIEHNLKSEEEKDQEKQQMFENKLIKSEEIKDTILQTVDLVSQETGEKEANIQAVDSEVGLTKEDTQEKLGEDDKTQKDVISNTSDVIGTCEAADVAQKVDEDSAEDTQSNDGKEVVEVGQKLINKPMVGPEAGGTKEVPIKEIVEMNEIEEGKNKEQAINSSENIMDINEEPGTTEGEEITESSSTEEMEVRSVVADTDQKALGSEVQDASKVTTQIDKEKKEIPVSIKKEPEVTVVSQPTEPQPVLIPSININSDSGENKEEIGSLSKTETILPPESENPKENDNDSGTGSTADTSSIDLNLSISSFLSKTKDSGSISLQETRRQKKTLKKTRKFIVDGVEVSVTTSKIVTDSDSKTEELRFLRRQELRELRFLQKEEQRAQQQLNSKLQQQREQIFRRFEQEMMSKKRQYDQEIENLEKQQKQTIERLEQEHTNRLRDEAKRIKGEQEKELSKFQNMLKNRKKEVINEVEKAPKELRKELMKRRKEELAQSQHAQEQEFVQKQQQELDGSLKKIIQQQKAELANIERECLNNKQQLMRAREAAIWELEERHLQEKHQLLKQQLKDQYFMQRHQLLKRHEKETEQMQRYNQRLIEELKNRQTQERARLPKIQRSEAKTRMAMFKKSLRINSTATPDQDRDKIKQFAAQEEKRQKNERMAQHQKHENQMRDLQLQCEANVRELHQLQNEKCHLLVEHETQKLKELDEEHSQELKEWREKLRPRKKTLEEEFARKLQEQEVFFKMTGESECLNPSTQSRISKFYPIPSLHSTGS
# UniProt Q8WVK2: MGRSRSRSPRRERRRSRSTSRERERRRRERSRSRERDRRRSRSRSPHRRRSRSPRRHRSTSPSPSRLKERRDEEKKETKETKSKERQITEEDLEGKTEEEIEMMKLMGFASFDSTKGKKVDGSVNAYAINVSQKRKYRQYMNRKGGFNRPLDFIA
# UniProt O15198: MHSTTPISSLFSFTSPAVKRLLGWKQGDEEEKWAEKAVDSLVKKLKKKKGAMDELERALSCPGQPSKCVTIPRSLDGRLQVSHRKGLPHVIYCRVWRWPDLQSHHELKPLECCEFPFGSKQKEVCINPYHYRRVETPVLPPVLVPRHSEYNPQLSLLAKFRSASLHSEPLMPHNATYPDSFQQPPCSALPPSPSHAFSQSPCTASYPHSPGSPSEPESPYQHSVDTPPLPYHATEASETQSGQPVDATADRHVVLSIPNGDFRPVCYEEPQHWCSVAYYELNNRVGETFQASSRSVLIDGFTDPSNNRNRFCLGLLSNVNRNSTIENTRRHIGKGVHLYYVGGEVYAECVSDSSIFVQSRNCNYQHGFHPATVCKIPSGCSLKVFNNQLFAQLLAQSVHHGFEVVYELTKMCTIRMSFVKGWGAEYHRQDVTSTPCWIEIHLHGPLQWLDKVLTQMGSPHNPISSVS
# UniProt O60749: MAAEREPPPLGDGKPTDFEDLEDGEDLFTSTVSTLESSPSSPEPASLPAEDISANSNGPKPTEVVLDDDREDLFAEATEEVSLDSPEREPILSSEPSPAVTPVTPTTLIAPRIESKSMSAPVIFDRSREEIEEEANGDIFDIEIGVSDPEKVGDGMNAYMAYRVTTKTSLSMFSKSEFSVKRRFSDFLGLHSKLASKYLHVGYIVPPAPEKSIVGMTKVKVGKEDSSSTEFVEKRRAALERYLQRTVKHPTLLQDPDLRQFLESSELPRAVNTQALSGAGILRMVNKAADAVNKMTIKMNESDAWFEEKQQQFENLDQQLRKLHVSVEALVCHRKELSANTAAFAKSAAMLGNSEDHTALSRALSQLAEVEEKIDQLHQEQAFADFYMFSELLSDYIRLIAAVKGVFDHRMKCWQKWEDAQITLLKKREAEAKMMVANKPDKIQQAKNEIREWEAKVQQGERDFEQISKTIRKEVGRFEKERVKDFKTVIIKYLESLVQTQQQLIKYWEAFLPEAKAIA
# UniProt Q8ND04: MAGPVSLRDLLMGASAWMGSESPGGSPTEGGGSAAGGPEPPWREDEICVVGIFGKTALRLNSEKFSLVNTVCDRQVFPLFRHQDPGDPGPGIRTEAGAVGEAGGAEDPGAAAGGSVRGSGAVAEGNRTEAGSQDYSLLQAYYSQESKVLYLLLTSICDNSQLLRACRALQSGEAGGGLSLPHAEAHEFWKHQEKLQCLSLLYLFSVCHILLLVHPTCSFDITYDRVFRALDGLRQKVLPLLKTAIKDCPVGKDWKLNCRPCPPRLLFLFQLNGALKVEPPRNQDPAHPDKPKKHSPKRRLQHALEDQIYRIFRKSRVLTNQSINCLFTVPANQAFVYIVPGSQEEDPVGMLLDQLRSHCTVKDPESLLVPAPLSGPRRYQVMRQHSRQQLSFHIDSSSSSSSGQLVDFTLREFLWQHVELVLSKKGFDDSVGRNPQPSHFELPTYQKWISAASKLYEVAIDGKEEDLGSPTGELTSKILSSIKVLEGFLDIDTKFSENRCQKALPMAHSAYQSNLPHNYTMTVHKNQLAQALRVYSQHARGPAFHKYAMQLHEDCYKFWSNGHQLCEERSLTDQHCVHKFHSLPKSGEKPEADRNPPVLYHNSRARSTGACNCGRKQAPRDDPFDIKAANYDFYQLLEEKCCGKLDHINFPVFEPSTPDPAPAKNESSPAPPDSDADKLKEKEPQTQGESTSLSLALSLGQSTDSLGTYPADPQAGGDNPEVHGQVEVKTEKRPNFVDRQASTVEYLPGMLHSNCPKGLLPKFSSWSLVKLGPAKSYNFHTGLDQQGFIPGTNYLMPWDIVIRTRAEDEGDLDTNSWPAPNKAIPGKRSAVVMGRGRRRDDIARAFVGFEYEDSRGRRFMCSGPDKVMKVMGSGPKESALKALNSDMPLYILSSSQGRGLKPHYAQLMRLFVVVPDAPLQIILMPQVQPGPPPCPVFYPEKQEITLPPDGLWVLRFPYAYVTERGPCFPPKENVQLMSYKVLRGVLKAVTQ
# UniProt Q13596, whole entry, looked up: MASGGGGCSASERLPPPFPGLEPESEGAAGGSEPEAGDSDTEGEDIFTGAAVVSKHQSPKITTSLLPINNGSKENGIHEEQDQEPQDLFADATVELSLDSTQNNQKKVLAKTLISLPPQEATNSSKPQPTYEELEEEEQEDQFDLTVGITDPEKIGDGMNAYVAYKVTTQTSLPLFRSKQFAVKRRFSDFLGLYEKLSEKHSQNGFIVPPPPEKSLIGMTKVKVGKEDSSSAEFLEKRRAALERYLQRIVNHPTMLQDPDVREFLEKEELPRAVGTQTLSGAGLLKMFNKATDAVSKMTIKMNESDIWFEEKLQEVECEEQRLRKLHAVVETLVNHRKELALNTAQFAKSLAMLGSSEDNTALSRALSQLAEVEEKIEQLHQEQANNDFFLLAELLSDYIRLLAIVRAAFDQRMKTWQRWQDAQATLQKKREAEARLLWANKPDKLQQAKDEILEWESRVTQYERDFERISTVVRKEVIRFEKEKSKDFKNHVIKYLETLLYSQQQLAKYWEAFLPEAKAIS
# The list shows a part of the results.
# Experiments:
# Test in all cases: log2 fold change, soluble protein after heating vs DMSO (PISA); higher = thermal stabilisation; K562 cells, 10 uM, 30 min; active = over 0.2 and 3.5 SD of the protein, either way, in both replicates (recomputed)
# [1] = compound: CC1=C(C=C(C=C1)NC(=O)C2=CC(=CC=C2)C(C)(C)C#N)NC3=CC4=C(C=C3)N=CN(C4=O)C
# Procedure, shortened: (§1)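 K562 cells (2×10^6 cells/mL) were treated with 10 μM compound for 30 min, and aliquots were heated for 3 min over 48°C-58°C. Pooled aliquots were extracted in PBS with 0.5% NP-40 at 4°C, and the supernatant after 21,000xg for 90 min was measured by TMTpro 16plex LC-MS/MS with channel sums equalised. Reported thermal stability, relative to control samples and from duplicates, is a log2 fold change.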
# [2] = compound: CC1=C(C=C(C=C1)NC(=O)C2=CC(=CC=C2)N(C)C)NC(=O)C3=CC=C(C=C3)O
# Procedure, shortened: as §1
# [3] = compound: CC1=CC=C(C=C1)SC2=C3C=C(SC3=CN=C2)C(=O)N
# Procedure, shortened: as §1
# [4] = compound: CC1=NC(=CC=C1)C2=C(N=C(N2)C(C)(C)C)C3=CC4=NC=CN=C4C=C3
# Procedure, shortened: as §1
# Nexturastat A = compound: CCCCN(Cc1ccc(C(=O)NO)cc1)C(=O)Nc1ccccc1 [Nexturastat A]
# Procedure, shortened: as §1
# vemurafenib = compound: CCCS(=O)(=O)Nc1ccc(F)c(C(=O)c2c[nH]c3ncc(-c4ccc(Cl)cc4)cc23)c1F [vemurafenib]
# Procedure, shortened: as §1
# [5] = compound: CCCS(=O)(=O)Nc1ccc(F)c(C(=O)c2c[nH]c3ncc(Cl)cc23)c1F
# Procedure, shortened: as §1
# [6] = compound: CCCc1cc(C)[nH]c(=O)c1CNC(=O)c1cc(-c2ccnc(N3CCN(C)CC3)c2)cc2c1cnn2C(C)C
# Procedure, shortened: as §1
# givinostat = compound: CCN(CC)Cc1ccc2cc(COC(=O)Nc3ccc(C(=O)NO)cc3)ccc2c1 [givinostat]
# Procedure, shortened: as §1
# barasertib = compound: CCN(CCCOc1ccc2c(Nc3cc(CC(=O)Nc4cccc(F)c4)[nH]n3)ncnc2c1)CCOP(=O)(O)O [barasertib]
# Procedure, shortened: as §1
# [7] = compound: CC[C@@H]1C(=O)N(C)c2cnc(Nc3ccc(C(=O)NC4CCN(C)CC4)cc3OC)nc2N1C1CCCC1
# Procedure, shortened: as §1
# volasertib = compound: CC[C@@H]1C(=O)N(C)c2cnc(Nc3ccc(C(=O)N[C@H]4CC[C@H](N5CCN(CC6CC6)CC5)CC4)cc3OC)nc2N1C(C)C [volasertib]
# Procedure, shortened: as §1
# [8] = compound: CC[C@H](C)N1C=C(C2=C(C=C(C=C21)C3=CN=C(C=C3)N4CCNCC4)C(=O)NCC5=C(C=C(NC5=O)C)C)C
# Procedure, shortened: as §1
# epoxomicin = compound: CC[C@H](C)[C@@H](C(=O)N[C@@H]([C@@H](C)O)C(=O)N[C@@H](CC(C)C)C(=O)[C@]1(CO1)C)NC(=O)[C@H]([C@@H](C)CC)N(C)C(=O)C [epoxomicin]
# Procedure, shortened: as §1
# [9] = compound: CCn1cc(-c2ccnc3[nH]c(-c4cccc(CN(C)C)c4)cc23)c(-c2ccc(NC(=O)N(C)C)cc2)n1
# Procedure, shortened: as §1
# [10] = compound: CN(C)CC(=O)Nc1ccc2[nH]c(=O)c3ccccc3c2c1
# Procedure, shortened: as §1
# [11] = compound: CN1C2=C(C3=C1C(=O)N(N=C3)CC4=CC(=CC=C4)N)SC(=C2)S(=O)C
# Procedure, shortened: as §1
# [12] = compound: CN1CCC(CNc2ccc3ncc(-c4cccc(OC(F)(F)F)c4)n3n2)CC1
# Procedure, shortened: as §1
# rosiglitazone = compound: CN(CCOC1=CC=C(C=C1)C[C@H]2C(=O)NC(=O)S2)C3=CC=CC=N3 (racemic) [rosiglitazone]
# Procedure, shortened: as §1
# [13] = compound: CCn1c(C(=O)N(C2CC2)C2CC2)cc2c3c(ncn3C)c(Nc3cc(C)n(C)n3)nc21
# Procedure, shortened: as §1
Target,log2 fold change [1],log2 fold change [2],log2 fold change [3],log2 fold change [4],log2 fold change (Nexturastat A),log2 fold change (vemurafenib),log2 fold change [5],log2 fold change [6],log2 fold change (givinostat),log2 fold change (barasertib),log2 fold change [7],log2 fold change (volasertib),log2 fold change [8],log2 fold change (epoxomicin),log2 fold change [9],log2 fold change [10],log2 fold change [11],log2 fold change [12],log2 fold change (rosiglitazone),log2 fold change [13]
SORT1 (UniProt Q99523),inactive: -0.042,inactive: 0.013,inactive: -0.006,inactive: -0.012,inactive: -0.038,inactive: -0.003,inactive: -0.008,inactive: -0.072,inactive: -0.003,inactive: 0.015,active: -0.984,active: -1.34,inactive: -0.013,inactive: 0.032,inactive: 0.007,inactive: 0.003,inactive: -0.028,active: -0.582,,
SLC7A6 (UniProt Q92536),inactive: 0.021,inactive: 0.027,inactive: 0.023,inactive: 0.017,inactive: 0.05,inactive: 0.03,inactive: -0.046,inactive: -0.005,inactive: 0.012,inactive: 0.036,inactive: 0.048,inactive: 0.042,inactive: -0.099,inactive: 0.211,inactive: -0.018,inactive: 0.04,inactive: -0.036,inactive: 0.122,,
SNTA1 (UniProt Q13424),inactive: -0.097,inactive: 0.037,inactive: -0.102,inactive: 0.018,inactive: -0.033,inactive: 0.056,inactive: 0.214,inactive: -0.13,,inactive: -0.305,,inactive: -0.08,inactive: -0.006,inactive: 0.03,inactive: -0.106,inactive: -0.116,inactive: -0.263,inactive: 0.133,inactive: 0.143,
SLK isoform 2 (UniProt Q9H2G2),inactive: -0.078,inactive: -0.07,inactive: 0.051,inactive: 0.02,inactive: -0.007,inactive: 0.03,inactive: 0.092,inactive: 0.026,inactive: 0,inactive: 0.047,inactive: -0.095,inactive: -0.161,inactive: 0.05,inactive: 0.052,active: -0.271,inactive: -0.016,inactive: -0.022,inactive: -0.152,,
SNRNP27 (UniProt Q8WVK2),inactive: -0.015,inactive: -0.006,inactive: -0.008,inactive: 0.007,inactive: -0.02,inactive: -0.031,inactive: -0.021,inactive: -0.361,inactive: -0.032,inactive: -0.039,inactive: 0.029,inactive: 0.014,inactive: -0.08,inactive: 0.01,inactive: 0.038,inactive: 0.005,inactive: 0.051,inactive: -0.032,,
SMAD9 (UniProt O15198),inactive: -0.012,inactive: 0.029,inactive: 0.005,inactive: 0.028,inactive: 0.04,inactive: 0.122,inactive: 0.104,inactive: -0.032,inactive: 0.108,inactive: 0.054,inactive: 0.059,active: -0.417,inactive: -0.137,inactive: 0.026,inactive: 0.035,inactive: 0.043,inactive: -0.087,inactive: -0.261,,
SNX2 (UniProt O60749),inactive: 0.009,inactive: -0.022,inactive: 0.02,inactive: 0.012,inactive: 0.021,inactive: 0.013,inactive: 0.052,inactive: -0.036,inactive: 0.073,inactive: 0.037,inactive: -0.129,inactive: -0.053,inactive: 0.093,inactive: 0.026,inactive: -0.08,inactive: 0.005,inactive: -0.003,active: -0.332,,
SMG8 isoform 2 (UniProt Q8ND04),inactive: -0.074,inactive: 0.183,inactive: 0.038,inactive: -0.058,inactive: 0.227,inactive: -0.168,inactive: -0.006,,inactive: 0.152,inactive: 0.094,inactive: -0.101,inactive: -0.317,inactive: 0.05,inactive: 0,inactive: -0.023,inactive: -0.021,inactive: 0.197,inactive: -0.09,inactive: -0.059,inactive: -0.053
SNX1 (UniProt Q13596),inactive: -0.014,inactive: -0.001,inactive: -0.001,inactive: 0.042,inactive: -0.025,inactive: 0.002,inactive: 0.083,inactive: -0.014,inactive: 0.054,inactive: 0.037,inactive: -0.135,inactive: -0.113,inactive: 0.096,inactive: 0.037,inactive: -0.107,inactive: 0.003,inactive: -0.029,active: -0.605,,

# Exported tab-delimited: entries from further up
Target	log2 fold change [1]	log2 fold change [2]	log2 fold change [3]	log2 fold change [4]	log2 fold change (Nexturastat A)	log2 fold change (vemurafenib)	log2 fold change [5]	log2 fold change [6]	log2 fold change (givinostat)	log2 fold change (barasertib)	log2 fold change [7]	log2 fold change (volasertib)	log2 fold change [8]	log2 fold change (epoxomicin)	log2 fold change [9]	log2 fold change [10]	log2 fold change [11]	log2 fold change [12]	log2 fold change (rosiglitazone)	log2 fold change [13]
SORT1 (UniProt Q99523)	inactive: -0.042	inactive: 0.013	inactive: -0.006	inactive: -0.012	inactive: -0.038	inactive: -0.003	inactive: -0.008	inactive: -0.072	inactive: -0.003	inactive: 0.015	active: -0.984	active: -1.34	inactive: -0.013	inactive: 0.032	inactive: 0.007	inactive: 0.003	inactive: -0.028	active: -0.582		
SNX1 (UniProt Q13596)	inactive: -0.014	inactive: -0.001	inactive: -0.001	inactive: 0.042	inactive: -0.025	inactive: 0.002	inactive: 0.083	inactive: -0.014	inactive: 0.054	inactive: 0.037	inactive: -0.135	inactive: -0.113	inactive: 0.096	inactive: 0.037	inactive: -0.107	inactive: 0.003	inactive: -0.029	active: -0.605		
